# Assay results published in PubChem BioAssay AID2685 (National Center for Advancing Translational Sciences (NCATS), 2010).
# The other results are listed elsewhere or left out. Shown are side measurements of this screen, not its main read-out; they come without a call. Compounds called inactive in the main read-out are mostly missing here. Words in brackets tell the shape of the fitted curve; partial curves, single points and poor fits give uncertain potencies.
# Test: qHTS Assay for Lipid Storage Modulators in Drosophila S3 Cells;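 for cell number change: cells counted by Cell Tracker Red CMTPX staining in the red channel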
# Settings: BODIPY lipid droplet fluorescence, 18-24 h; for cell number change: measured here: cell count max response, cells fed with added oleic acid
# Summary of the method: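 Laser-scanning cytometry quantifies lipid droplet accumulation (500–530 nm total intensity; droplet/cell object ratio) in oleic acid-fed (400 uM added) Drosophila S3 cells treated with a concentration series. 20 uM Triacsin C defined 100% inhibition.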
# [1] = measured here: cell number channel AC50, cells fed with added oleic acid
# [2] = measured here: lipid fluorescence (Fed channel) AC50, cells fed with added oleic acid
SMILES,cell number change [%],AC50 [1],AC50 [2]
CCOc1ccc(C2C(C#N)=C(N)Oc3n[nH]c(C)c32)cc1OC(=O)C1CC1 (stereo not given),60.4,"1.64 µM [rising, full curve]","6.51 µM [rising, single point]"
CCCCN(C)CCCNC(=O)c1ccc2c(c1)N(CC)C(=O)c1ccccc1S2=O (stereo not given),38.7,"6.51 µM [rising, full curve]","6.51 µM [rising, single point]"
COc1ccccc1NS(=O)(=O)c1cc(NC(=O)C(C)NC(N)=O)ccc1N1CCCC1 (stereo not given),21,–,"18.4 µM [rising, single point]"
COc1cccc(C(C(=O)NC(C)(C)C)N(C(=O)CCC(=O)Nc2cc(C)on2)C2CC2)c1OC (stereo not given),-0.934,–,–
O=C(NCc1ccc(F)cc1)c1cc(S(=O)(=O)N2CCCCC2)c[nH]1,13.5,–,"13 µM [falling, single point]"
COc1cccc(CSc2nnc(-c3ccco3)n2C)c1,-26.6,"1.64 µM [falling, full curve, poor fit]",–
CCn1c(N2CCN(C(=O)c3ccco3)CC2)nc2ccccc21,1.1,–,"0.13 µM [rising, full curve, poor fit]"
O=C(c1ccccc1/S(=N/S(=O)(=O)c1ccccc1)N1CCOCC1)N1CCOCC1 (stereo not given),2.07,–,"29.1 µM [falling, single point]"
O=C(CCC1CCCNC1)c1ccccc1 (stereo not given),-13.2,–,–
COC(=O)Cc1c(C)nc2nc(Cc3ccccc3)[nH]n2c1=O,6.61,–,"0.411 µM [falling, full curve]"
O=C(N/N=C/c1c(O)ccc2ccccc12)c1cccnc1,-17,–,"6.51 µM [falling, single point]"
Cc1cccc(N(CC(=O)NCCc2ccccc2)C(=O)c2csnn2)c1,-7.98,–,–
C=CCNC(=O)CSc1nc2sccc2c(=O)n1-c1ccccc1,2.5,–,"1.03 µM [rising, full curve]"
Cc1cc2nc3n(c2cc1C)CC1CC(C(=O)NCc2ccccc2)N(C)C31 (stereo not given),22.7,–,"32.6 µM [rising, single point]"
Cn1nnnc1SCC(=O)NC(C)(C)C,-11.3,–,"29.1 µM [rising, single point]"
CCN(CC)S(=O)(=O)c1cc(Cl)ccc1OC,-19.2,–,–
O=C(c1ccc2nc(N3CCOCC3)sc2c1)N1CCC(Cc2ccccc2)CC1,108,"23.1 µM [rising, single point]",–
CCCCn1c(N)c(N(CC)C(=O)CSCc2ccc(C)cc2)c(=O)[nH]c1=O,0.926,–,"35.5 µM [falling, single point]"
CC(C)Cc1cc(C(=O)Nc2c(F)cc(F)cc2Br)no1,-43.2,"18.4 µM [falling, single point]","5.17 µM [falling, full curve]"
CCOCCSc1nc2c(c(=O)[nH]c(=O)n2C)n1CCCc1ccccc1,10.5,"3.66 µM [rising, single point]",–
Cc1nc(SCC(=O)NCc2ccc3c(c2)OCO3)c(C#N)c2c1CCCC2,-21.9,–,–

SMILES,cell number change [%],AC50 [1],AC50 [2]
Cn1c(=O)n(C)c2cc([N+](=O)[O-])c(N3CCN(C(=O)c4cccc(F)c4)CC3)cc21,-3.18,–,–
Cc1ccc(-c2nc3ccccc3c(=O)n2CCCn2ccnc2)cc1,-7.22,–,"0.13 µM [falling, full curve, poor fit]"
COc1ccc2sc(NCc3ccccc3)nc2c1,1.53,–,"29.1 µM [rising, single point]"
COc1ccc(NC(=O)CCC(=O)N2CCN(S(=O)(=O)c3ccc(C)cc3)CC2)c(OC)c1,-85.5,"3.66 µM [rising, single point]",–
COc1cc(NC(=O)CSc2nnc(-c3ccncc3)o2)cc(OC)c1OC,18.2,–,"11.6 µM [rising, partial curve]"
CCCCCCn1nc(C(=O)N(CC(C)C)c2c(N)n(CCCC)c(=O)[nH]c2=O)c2ccccc2c1=O,-46.4,"29.1 µM [falling, single point]","16.4 µM [falling, partial curve, poor fit]"
Cc1cnn(C(=O)c2ccccc2Br)c1,8.07,–,"20.6 µM [falling, single point]"
CN(Cc1cn(C)nc1-c1cccc(Cl)c1)Cc1nccn1C,26.6,–,"3.66 µM [rising, single point]"
Cc1ccccc1OCC(=O)OCC(=O)c1cc(C)n(C2CC2)c1C,–,–,"0.231 µM [rising, full curve, poor fit]"
Cc1ccccc1NC(=O)c1ccc2c(c1)N(C)CCS2,2.31,–,"3.26 µM [falling, single point]"
O=C(COC(=O)C1CC2C=CC1C2)Nc1ccc2c(c1)OC(F)(F)O2 (stereo not given),-42.6,"10.3 µM [falling, partial curve]","11.6 µM [falling, partial curve]"
C=CCNC(=S)NNC(=O)C(CCCC)CC(C)O (stereo not given),–,–,"25.9 µM [falling, partial curve]"
O=C(Nc1ccc(Cl)c(Cl)c1)OCc1cccnc1,98.7,"7.31 µM [rising, partial curve]","5.17 µM [rising, partial curve]"
Cc1ccc(C(=O)N(CC(=O)NC2CCCCC2)c2ccccc2F)s1,-13.2,–,"5.17 µM [falling, full curve]"
O=C(NCCc1ccccn1)c1ccc(OC2CCN(CCc3ccccc3)CC2)cc1,53.3,"23.1 µM [rising, partial curve, poor fit]",–
Cc1ccc(-c2nnn(CC(=O)Nc3ccccc3N3CCOCC3)n2)cc1,14.2,"0.146 µM [rising, full curve]","0.326 µM [rising, full curve]"
COc1ccc(C(=O)O/N=C(\N)c2ccccn2)cc1[N+](=O)[O-],-16.1,–,–
O=C1CSC(c2cn(-c3ccccc3)nc2-c2cccs2)N1CC1CCCO1 (stereo not given),–,"2.59 µM [rising, partial curve]","3.26 µM [rising, partial curve]"
Cn1ccnc1/C(=N\NC(=O)c1ccccc1)c1cccc([N+](=O)[O-])c1,118,"18.4 µM [rising, single point]",–
COc1cc(C(CCN2CCCCC2)c2c(OC)cc(OC)c3c(-c4ccccc4)cc(=O)oc23)cc(OC)c1OC (stereo not given),5.89,"0.13 µM [rising, full curve, poor fit]","2.06 µM [rising, partial curve]"
CC1(C)CC(=O)C(C=Nc2ccccc2C(=O)O)=C(O)C1,-13,–,"32.6 µM [falling, single point]"

SMILES,cell number change [%],AC50 [1],AC50 [2]
Cc1ccc(S(=O)(=O)N2CCN(C(=O)C(Cc3ccccc3)NC(=O)c3ccccc3)CC2)cc1 (stereo not given),1.88,–,"29.1 µM [rising, single point]"
CC1CCN(C(=O)COC(=O)Cn2cnc3c2c(=O)n(C)c(=O)n3C)CC1,-16.5,–,–
Cc1ccc(-n2nc(C)c(NC(=O)CCl)c2C)cc1C,-33.8,"29.1 µM [falling, single point]","18.4 µM [falling, single point]"
CN(CCOC(=O)/C=C/c1ccccc1)C(C)(C)C,-9.28,–,"3.66 µM [falling, full curve, poor fit]"
O=C(c1cc2c(s1)-c1ccccc1OC2)N1CCN(c2ccccc2)CC1,23.1,–,"9.2 µM [rising, single point]"
COC(=O)CCC(=O)Nc1nnc(C(F)(F)F)s1,-10.8,–,–
O=C1/C(=C/c2ccccc2Cl)SC(=S)N1CCC(=O)N1CCCCC1CCO (stereo not given),-10.9,–,–
O=C(Nc1c(F)cccc1F)C1CCN(C(=O)c2cccs2)CC1,15.8,–,–
Cc1ccc(NC(=O)Nc2ccc3c(c2)OCO3)cc1F,24.2,–,–
Cc1ccc(NC(=O)CCC(=O)NNC(=O)/C=C/C(=O)O)c(C)c1,31.8,"6.51 µM [rising, single point]","2.59 µM [rising, partial curve, poor fit]"
CCCc1cc(=O)oc2cc(C)cc(OC(C)C(=O)N[C@@H](Cc3c[nH]c4ccccc34)C(=O)O)c12 (stereo not given in full),9.93,–,–
CCN(CC)c1ccc(C(=O)Nn2cnc3ccccc3c2=O)cc1,50.4,"20.6 µM [rising, partial curve]",–
CCc1noc(C)c1C(=O)Nc1cccc(S(=O)(=O)N2CCCCCC2)c1,-4.16,–,–
Cc1ccc(OCCC(=O)OCC(=O)Nc2ccc3c(c2)OCCO3)cc1,5.22,–,–
CC1(C)CC(=O)C(C2NCCc3ccccc32)=C(O)C1 (stereo not given),-5.9,–,"1.16 µM [falling, full curve]"
COc1ccc(OC)c(NC(=O)COc2ccc(S(=O)(=O)N3CCCC3)cc2)c1,-31.6,"2.06 µM [falling, partial curve, poor fit]","5.62 µM [falling, single point]"
CCNC(=S)NNC(=S)NCc1ccccc1,11.5,"2.31 µM [falling, single point]",–
CC(=O)Nc1ccc(Nc2cc(C)nc3c(-c4ccccc4)c(C)nn23)cc1,2.87,–,"0.366 µM [rising, partial curve, poor fit]"
CNC(=O)c1cc(Nc2nnc(-c3ccc(C)c(S(N)(=O)=O)c3)c3ccccc23)ccc1OC,60.3,"29.1 µM [rising, single point]",–
CCC(C)NC(=O)c1ccc(NS(=O)(=O)c2ccc3[nH]c(=O)[nH]c3c2)cc1 (stereo not given),16.2,–,–
O=C(C1CCC(CNS(=O)(=O)c2cccc3cccnc23)CC1)N1CCc2ccccc21 (stereo not given),8.21,"3.26 µM [rising, single point]","6.51 µM [rising, single point]"

# An excerpt of these results, bar-delimited.
SMILES | cell number change [%] | AC50 [1] | AC50 [2]
Cc1ccc(S(=O)(=O)N2CCN(C(=O)C(Cc3ccccc3)NC(=O)c3ccccc3)CC2)cc1 (stereo not given) | 1.88 | – | 29.1 µM [rising, single point]
CC1CCN(C(=O)COC(=O)Cn2cnc3c2c(=O)n(C)c(=O)n3C)CC1 | -16.5 | – | –
Cc1ccc(-n2nc(C)c(NC(=O)CCl)c2C)cc1C | -33.8 | 29.1 µM [falling, single point] | 18.4 µM [falling, single point]
CN(CCOC(=O)/C=C/c1ccccc1)C(C)(C)C | -9.28 | – | 3.66 µM [falling, full curve, poor fit]
COC(=O)CCC(=O)Nc1nnc(C(F)(F)F)s1 | -10.8 | – | –
O=C1/C(=C/c2ccccc2Cl)SC(=S)N1CCC(=O)N1CCCCC1CCO (stereo not given) | -10.9 | – | –
O=C(Nc1c(F)cccc1F)C1CCN(C(=O)c2cccs2)CC1 | 15.8 | – | –
CCCc1cc(=O)oc2cc(C)cc(OC(C)C(=O)N[C@@H](Cc3c[nH]c4ccccc34)C(=O)O)c12 (stereo not given in full) | 9.93 | – | –
CCN(CC)c1ccc(C(=O)Nn2cnc3ccccc3c2=O)cc1 | 50.4 | 20.6 µM [rising, partial curve] | –
Cc1ccc(OCCC(=O)OCC(=O)Nc2ccc3c(c2)OCCO3)cc1 | 5.22 | – | –
CC1(C)CC(=O)C(C2NCCc3ccccc32)=C(O)C1 (stereo not given) | -5.9 | – | 1.16 µM [falling, full curve]
COc1ccc(OC)c(NC(=O)COc2ccc(S(=O)(=O)N3CCCC3)cc2)c1 | -31.6 | 2.06 µM [falling, partial curve, poor fit] | 5.62 µM [falling, single point]
CCNC(=S)NNC(=S)NCc1ccccc1 | 11.5 | 2.31 µM [falling, single point] | –
CC(=O)Nc1ccc(Nc2cc(C)nc3c(-c4ccccc4)c(C)nn23)cc1 | 2.87 | – | 0.366 µM [rising, partial curve, poor fit]
CNC(=O)c1cc(Nc2nnc(-c3ccc(C)c(S(N)(=O)=O)c3)c3ccccc23)ccc1OC | 60.3 | 29.1 µM [rising, single point] | –
O=C(C1CCC(CNS(=O)(=O)c2cccc3cccnc23)CC1)N1CCc2ccccc21 (stereo not given) | 8.21 | 3.26 µM [rising, single point] | 6.51 µM [rising, single point]
